At least one peptide structure holds a part that was inferred or is arguable (an end, a ring closure or a residue). No end group written: not given here.
Test system: bacteria
Experiment: Lacritin inhibition (colony count) assay, bacterium not given
Format: cell-based
Procedure: Bacterial Growth, SYTOX Green Assays, and on Column Cleavage—E. coli (ATCC (Manassas Va.) catalog no. 10536), S. epidermidis (ATCC catalog no. 12228), and P. aeruginosa (ATCC catalog no. 9027) were grown to mid-log phase in 50 ml of Luria-Bertani (LB) medium and washed three times in phosphate buffer containing 10 mM NaCl (pH 7.2; PB—NaCl) with centrifugation. Pellets were resuspended in 1 ml of PB—NaCl.
For lacritin inhibition assays, 50 ul of bacterial pellets each diluted 1:100 in PB—NaCl were incubated for 1.5 h (37° C.) with 100 ul of lacritin, lacritin truncations, or synthetic peptides at a final concentration of 0.1-6 uM. Mixtures were diluted 1:10 in PB—NaCl before plating 100 ul in quadruplicate on LB agar plates for overnight growth at 37° C. Colonies were manually counted. In other experiments, mid-log E. coli was treated at 37° C. for 0, 1, 2, or 3 h with 2 uM lacritin or lacritin truncations or with ampicillin (5 uM) or tetracycline (2 uM). After each treatment, 100 ul was centrifuged, resuspended in 1 ml of PB—NaCl, and plated (100 ul) onto LB agar for overnight growth (37° C.) and colony counting.

With “Ac-KQFIENGSEFAQKLLKKFSLLKPWA (N-terminus assumed) [LACRIPEP]” the Bactericidal activity (4 μM) was “bactericidal”, the “Bactericidal activity of synthetic peptides” value (synthetic peptides) was “fully active” and the “Colonies with synthetic peptides” value (synthetic peptides) was “few or no colonies were apparent”.

Reference: US10393755B2, “Compositions and methods for treating eye infections and disease” (UNIVERSITY OF VIRGINIA PATENT FOUNDATION, priority 2014, dated 2019)
